Test results taken from the supplement of paper PMC11098740.
This is one part of the list. Single values are uncertain, as repeats are few or missing.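 The assay uses a mixed pool of 41 HAP1 clones in which 61 cancer-associated proteins bear intron-inserted fluorescent tags, and clones are distinguished by image pattern. Results are compared against DMSO-treated control wells, and the BRD4 degrader dBET6 is the positive control.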

Sequences of proteins named here, by UniProt entry; tags and fusion partners are left off.
UniProt O14980, whole entry: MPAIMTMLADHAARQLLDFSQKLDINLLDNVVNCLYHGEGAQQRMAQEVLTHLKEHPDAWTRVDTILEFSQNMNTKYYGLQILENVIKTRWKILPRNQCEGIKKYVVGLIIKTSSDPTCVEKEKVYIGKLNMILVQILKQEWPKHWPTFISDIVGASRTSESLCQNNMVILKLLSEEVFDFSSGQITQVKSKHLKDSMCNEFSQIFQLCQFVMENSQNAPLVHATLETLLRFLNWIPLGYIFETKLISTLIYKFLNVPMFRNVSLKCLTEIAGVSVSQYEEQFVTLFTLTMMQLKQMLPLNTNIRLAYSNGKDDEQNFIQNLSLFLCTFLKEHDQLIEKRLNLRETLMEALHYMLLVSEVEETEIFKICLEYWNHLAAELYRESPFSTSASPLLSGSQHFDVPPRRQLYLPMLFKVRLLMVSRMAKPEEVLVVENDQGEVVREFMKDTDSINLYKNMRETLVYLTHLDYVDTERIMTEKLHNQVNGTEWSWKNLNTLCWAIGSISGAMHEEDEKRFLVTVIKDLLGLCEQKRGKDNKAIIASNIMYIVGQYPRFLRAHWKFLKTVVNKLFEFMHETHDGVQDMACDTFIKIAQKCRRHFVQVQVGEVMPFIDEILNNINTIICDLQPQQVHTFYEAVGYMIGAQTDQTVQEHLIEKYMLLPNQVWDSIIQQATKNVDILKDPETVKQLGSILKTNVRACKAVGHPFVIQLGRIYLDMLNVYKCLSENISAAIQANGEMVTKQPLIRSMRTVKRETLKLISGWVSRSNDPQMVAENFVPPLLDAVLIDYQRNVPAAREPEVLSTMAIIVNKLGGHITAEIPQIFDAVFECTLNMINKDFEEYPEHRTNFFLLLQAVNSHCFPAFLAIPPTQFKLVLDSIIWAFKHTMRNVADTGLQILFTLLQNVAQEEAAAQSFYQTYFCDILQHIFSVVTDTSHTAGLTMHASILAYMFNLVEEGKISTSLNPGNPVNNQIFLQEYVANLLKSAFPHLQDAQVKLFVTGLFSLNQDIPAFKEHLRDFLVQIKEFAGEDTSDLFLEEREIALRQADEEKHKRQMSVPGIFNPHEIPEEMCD

Molecular target: XPO1 (intron 15 mScarlet tag, HAP1) (UniProt O14980)
Assay: XPO1 fluorescence intensity change vs DMSO (log2 fold change); higher = more XPO1 protein
Conditions: 6 h

Row | Compound | XPO1 fluorescence intensity change (log2)
1 | CC[C@H](Nc1ncnc2[nH]cnc12)c1nc2cccc(F)c2c(=O)n1-c1ccccc1 [Idelalisib] (10 µM) | 0.132
2 | N[C@@H](CC(=O)N1CCn2c(nnc2C(F)(F)F)C1)Cc1cc(F)c(F)cc1F [Sitagliptin] (10.0003 µM) | 0.138
3 | CNC[C@H](O)c1ccc(O)c(O)c1 [Epinephrine] (10 µM) | 0.122
4 | O=C(c1cc(Cc2n[nH]c(=O)c3ccccc23)ccc1F)N1CCN(C(=O)C2CC2)CC1 [Olaparib] (10 µM) | 0.179
5 | CNC(=O)c1cc(Oc2ccc(NC(=O)Nc3ccc(Cl)c(C(F)(F)F)c3)c(F)c2)ccn1 [Regorafenib] (20 µM) | -0.07
6 | C[C@H]1O[C@H](O[C@H]2[C@H](O)[C@@H](O)[C@@H](O[C@H]3[C@H](O)[C@@H](O)C(O)O[C@@H]3CO)O[C@@H]2CO)[C@H](O)[C@@H](O)[C@@H]1N[C@H]1C=C(CO)[C@@H](O)[C@H](O)[C@H]1O (stereo partly specified) [Acarbose] (10.0006 µM) | 0.0307
